The record followed here is paper PMC6290091.

The target of the data set is PdWND1B (UniProt B9GIS7). In words: EMSA. The settings on record: 5 mM MgCl2, poly dI:dC, positive control; LightShift EMSA: 1X binding buffer, 2.5% glycerol, 5 mM MgCl2, 50 ng/ul poly dI:dC, 0.05% NP-40, ~100 fmol DNA, 200-300 ng protein, 20 min, room temperature; recombinant protein; protein details: GST (N-terminal, pGEX-6P-1); label: biotin 3' end; probe letters rebuilt from the primers and the genome. (In EMSA bound probe runs differently from free probe, usually more slowly.)

The exact form of at least one protein or probe is not confirmed.

Regarding “ACCTCTCTCATTTTCCCCTGCAGTCCCTCTCCAAACCGTTTTACTGCTCAGACCTCAGACTCATTCATCAACCAACCCCTCTCGCTCTCTCTCTCTCTCTCTCTCTCTCTCTTTCCTATATTCTAAGCAATACCCACAACCATCATCACCATCATGATCGGCATGCCCACTCTGCCAAGCTCCTCTCTCTCTTTCTCATAATCTGCCATTCTATAAAGCCTTAACTGATCTACATCAAACCAGTTGGGAAGAAATATATATATAGATCACCTTTCTAGTGACAGGGA (double strand) [PdMYB002 promoter]”, the binding result was “binds”.
